Results on 20 compounds are retold here after the supplement of paper PMC12889115.

This is one part of the list. Values are raw readings; no control value is given beside them.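 In the initial screen, polymyxin B was used at a concentration that permeabilizes Salmonella's outer membrane but not its inner membrane. Maximum growth was set by DMSO wells with or without polymyxin B. Since plates varied, data were ranked per plate, and compounds giving the lowest OD600 advanced as hits.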

For this experiment, the system named is Salmonella enterica serovar Typhimurium SL1344. Put plainly: bacterial growth OD600 after 18 h with compound and polymyxin B; higher = more bacterial growth (less inhibition). The settings on record: 50 µM, Mueller-Hinton broth.

Turning to `CC(C)CCC1(C2CCN(C(=O)c3cc(C(C)C)on3)CC2)NC(=O)N(Cc2ccccn2)C1=O` (stereo not given), the “bacterial growth OD600” value (polymyxin B 0.75 µg/mL) was found to be 0.889.

For `Cc1cnccc1CN(C)C(=O)CC(c1ccccc1)c1ccc2c(c1)OCO2` (stereo not given), the “bacterial growth OD600” value (polymyxin B 1 µg/mL) is 0.701.

Consider `COc1cccc(CC2(CO)CCCN(Cc3c(OC)cc(OC)cc3OC)C2)c1` (stereo not given), for which the “bacterial growth OD600” value (polymyxin B 1 µg/mL) is 0.989.

On to `COCCNC(=O)c1ccc(OC2CCN(C(C)COC)CC2)c(Cl)c1` (stereo not given), for which the “bacterial growth OD600” value (polymyxin B 1 µg/mL) stood at 1.24.

Turning to `O=C1CCCN1CCC1CCCCN1Cc1nc(COc2ccccc2)no1` (stereo not given), where the note is “polymyxin B 1 µg/mL”, the “bacterial growth OD600” value was 0.689.

`CN(C)CCC1CN(C(=O)C2CCCCC2)CCO1` (stereo not given): the “bacterial growth OD600” value (polymyxin B 0.75 µg/mL) is 0.749.

Regarding `CCOC(=O)C1(Cc2ccccc2F)CCCN(C(=O)c2ccc3nccnc3c2)C1` (stereo not given), the “bacterial growth OD600” value (polymyxin B 1 µg/mL) amounted to 0.978.

For `CCC1CN(CCNC(=O)COc2ccc(C)cc2)Cc2cc(OC)ccc2O1` (stereo not given), the “bacterial growth OD600” value (polymyxin B 0.75 µg/mL) was 0.716.

For the compound `COc1cc(CC2(CCC(=O)NCCc3nc(-c4ccccc4)cs3)CCC(=O)N2)ccc1F` (stereo not given), the “bacterial growth OD600” value (polymyxin B 0.75 µg/mL) was 0.737.

With `O=C(NCc1ccco1)c1ccccc1OC1CCN(Cc2ccccn2)CC1`, the “bacterial growth OD600” value (polymyxin B 1 µg/mL) was 0.884.

As to `COc1cccc(OCC(O)CNC(=O)C2CC(=O)c3sc(NC(=O)c4ccncc4)nc3C2)c1` (stereo not given), the “bacterial growth OD600” value (polymyxin B 0.75 µg/mL) worked out at 0.836.

On to `c1coc(CCNc2nc3nonc3nc2N2CCSCC2)c1`, for which the “bacterial growth OD600” value (polymyxin B 0.75 µg/mL) worked out at 0.722.

Consider `CC(C)C1=NOC(C(=O)N2CCc3[nH]nc(-c4ccc(F)c(F)c4)c3C2)C1` (stereo not given), for which the “bacterial growth OD600” value (polymyxin B 0.75 µg/mL) stood at 0.757.

Turning to `COc1cc(CN2CCOc3ccc(C(C)(O)COc4ccccc4)cc3C2)ccc1F` (stereo not given), the “bacterial growth OD600” value (polymyxin B 0.75 µg/mL) is 0.014.

On to `COc1ccc(-c2nc(CN(C)Cc3cccc(C(F)(F)F)c3)c(C)o2)cc1`, for which the “bacterial growth OD600” value (polymyxin B 0.75 µg/mL) amounted to 0.007.

Regarding `COc1cc(OC)nc(N2CCc3[nH]nc(-c4ccccc4)c3C2)n1`, the “bacterial growth OD600” value (polymyxin B 0.75 µg/mL) is 0.406.

On to `COc1cccc(OCC(O)CNC(=O)CCC2(Cc3ccc(F)c(OC)c3)CCC(=O)N2)c1` (stereo not given), for which the “bacterial growth OD600” value (polymyxin B 0.75 µg/mL) was 0.85.

`CCOC(=O)C1(Cc2ccc(F)cc2)CCCN(C(=O)C(C)C)C1` (stereo not given): under “polymyxin B 1 µg/mL”, the “bacterial growth OD600” value was 0.949.

Consider `COc1ccc(-n2ccnc2CN(C)C2CCCN(C3Cc4ccccc4C3)C2)cc1` (stereo not given), for which the “bacterial growth OD600” value (polymyxin B 1 µg/mL) came to 0.77.

As for `O=C(CCc1ccc2c(c1)OCO2)N1CCC2(CCCN(CC3CC3)C2=O)C1` (stereo not given), under “polymyxin B 1 µg/mL”, the “bacterial growth OD600” value came out at 1.04.
